The list shows only some results of the screen, not a fair sample: it covers a few groups of compounds. Other doses and runs of a compound may be missing. T/C: endpoint of the treated group in % of that of the vehicle group. Schedule codes are those of the source, taken here to give the interval after Q, in days (D) or hours (H), and the number of doses after X. Some entries give survivors of the animals treated and no T/C: the source files T/C as zero there, which appears to mark a toxic dose or a test without result, not a measured value. Counts of survivors are from the toxicity check, whose day is not always given; animals may have died later.
System: B6C3F1 mice, colon carcinoma 38 s.c., T/C
Experiment: NCI In Vivo Anticancer Drug Screen. Data for tumor model Colon Carcinoma 38 (subcutaneous) in B6C3F1 mice
Conditions: T/C endpoint: median tumor weight (est.), schedule: Q07DX002 (ip), vehicle: water, higher T/C = larger tumour; for T/C: evaluated on day 20
Method: The antitumor activity of compounds was measured in mice bearing transplantable tumors. Survival or tumor size were measured and the results are expressed as the measurement made in the treated group (T) divided by the measurement made in the vehicle treated control group (C). The tumor model used in this assay is Colon Carcinoma 38 (subcutaneous) in B6C3F1 mice

`NC1CCCCC1.NP(=O)(O)N(CCCl)CCCl` was tested, and the T/C (dose: 50.0 mg/kg/injection) was 40 % of control, the T/C (dose: 100.0 mg/kg/injection) was 7 % of control and the survivor count (dose: 200.0 mg/kg/injection) was 0 of 10 on day 20. For the same molecule, the survivor count (dose: 400.0 mg/kg/injection) was 0 of 10 on day 20.
